Experimental data reported in the supplement of paper PMC7661543.
± gives the standard deviation of the averaged measurements. The effect of the compound repeats well; differences between the knockouts mostly do not.

Test system: BT-20
Assay: relative cell number vs DMSO control (72 h) (% of DMSO); higher = less growth inhibition (more cells)
Protocol: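 QMAP-Seq: a pool of 5 breast cancer cell lines (ZR-75-1, SKBR3, HCC-38, MDA-MB-231, BT-20), each carrying 12 doxycycline-inducible Cas9 sgRNA perturbations (11 knockouts plus non-targeting sgNT), was treated with compounds for 72 h at four 10-fold doses (10 nM-10 uM or 1 nM-1 uM range). Barcodes were amplified and sequenced, and cell number was interpolated from 293T spike-in standard curves. The result is expressed as % of the median of DMSO wells. Two biological replicates.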

CC(C)c1cc(-c2n[nH]c(=O)n2-c2ccc3c(ccn3C)c2)c(O)cc1O [Ganetespib]
Details	relative cell number
sgRNA knockout: sgATF3, 1 nM	88.5 ± 26
sgRNA knockout: sgATF3, 10 nM	99.2 ± 11
sgRNA knockout: sgATF3, 100 nM	42.1 ± 3.1
sgRNA knockout: sgATF3, 1000 nM	44.8 ± 4
sgRNA knockout: sgATF4, 1 nM	94.7 ± 19
sgRNA knockout: sgATF4, 10 nM	115 ± 9
sgRNA knockout: sgATF4, 100 nM	34.6 ± 2.4
sgRNA knockout: sgATF4, 1000 nM	43.9 ± 6.6
sgRNA knockout: sgATF6, 1 nM	85.5 ± 31
sgRNA knockout: sgATF6, 10 nM	100.2 ± 0.35
sgRNA knockout: sgATF6, 100 nM	44.2 ± 1.7
sgRNA knockout: sgATF6, 1000 nM	40.2 ± 7.9
sgRNA knockout: sgATG7, 1 nM	104 ± 14
sgRNA knockout: sgATG7, 10 nM	101 ± 7.4
sgRNA knockout: sgATG7, 100 nM	45.7 ± 7.2
sgRNA knockout: sgATG7, 1000 nM	37.4 ± 3.7
sgRNA knockout: sgERN1, 1 nM	93.5 ± 27
sgRNA knockout: sgERN1, 10 nM	85.5 ± 5.5
sgRNA knockout: sgERN1, 100 nM	37.5 ± 0.52
sgRNA knockout: sgERN1, 1000 nM	35.8 ± 15
sgRNA knockout: sgHSF1, 1 nM	96.3 ± 32
sgRNA knockout: sgHSF1, 10 nM	98.7 ± 9
sgRNA knockout: sgHSF1, 100 nM	39.1 ± 0.49
sgRNA knockout: sgHSF1, 1000 nM	37.5 ± 2.1
sgRNA knockout: sgHSF2, 1 nM	86.5 ± 7.9
sgRNA knockout: sgHSF2, 10 nM	99.8 ± 1.2
sgRNA knockout: sgHSF2, 100 nM	41.9 ± 9.1
sgRNA knockout: sgHSF2, 1000 nM	35 ± 5.4
sgRNA knockout: sgKEAP1, 1 nM	88 ± 5.5
sgRNA knockout: sgKEAP1, 10 nM	101 ± 1.7
sgRNA knockout: sgKEAP1, 100 nM	37.5 ± 4.2
sgRNA knockout: sgKEAP1, 1000 nM	40 ± 3.7
sgRNA knockout: sgNFE2L2, 1 nM	101 ± 20
sgRNA knockout: sgNFE2L2, 10 nM	91.6 ± 3.8
sgRNA knockout: sgNFE2L2, 100 nM	44.7 ± 17
sgRNA knockout: sgNFE2L2, 1000 nM	41.3 ± 9.7
sgRNA knockout: sgSLC35F2, 1 nM	92.4 ± 7.1
sgRNA knockout: sgSLC35F2, 10 nM	113 ± 3.4
sgRNA knockout: sgSLC35F2, 100 nM	37.3 ± 3.8
sgRNA knockout: sgSLC35F2, 1000 nM	42.6 ± 1.7
sgRNA knockout: sgXBP1, 1 nM	95.1 ± 24
sgRNA knockout: sgXBP1, 10 nM	101 ± 6.4
sgRNA knockout: sgXBP1, 100 nM	37.01 ± 0.19
sgRNA knockout: sgXBP1, 1000 nM	37.5 ± 6.6

N#Cc1ccc(C(c2ccc(C#N)cc2)n2cncn2)cc1 [Letrozole]
Details	relative cell number
sgRNA knockout: sgATF3, 1 nM	107 ± 11
sgRNA knockout: sgATF3, 10 nM	108 ± 27
sgRNA knockout: sgATF3, 100 nM	94.2 ± 10
sgRNA knockout: sgATF3, 1000 nM	89.2 ± 6.2
sgRNA knockout: sgATF4, 1 nM	110 ± 2.7
sgRNA knockout: sgATF4, 10 nM	90 ± 28
sgRNA knockout: sgATF4, 100 nM	109 ± 9.9
sgRNA knockout: sgATF4, 1000 nM	94.2 ± 18
sgRNA knockout: sgATF6, 1 nM	94.8 ± 13
sgRNA knockout: sgATF6, 10 nM	79.1 ± 26
sgRNA knockout: sgATF6, 100 nM	118 ± 14
sgRNA knockout: sgATF6, 1000 nM	93.2 ± 11
sgRNA knockout: sgATG7, 1 nM	115 ± 6.5
sgRNA knockout: sgATG7, 10 nM	100 ± 18
sgRNA knockout: sgATG7, 100 nM	80 ± 2.5
sgRNA knockout: sgATG7, 1000 nM	98.3 ± 1.7
sgRNA knockout: sgERN1, 1 nM	87.1 ± 2.1
sgRNA knockout: sgERN1, 10 nM	93 ± 18
sgRNA knockout: sgERN1, 100 nM	101 ± 11
sgRNA knockout: sgERN1, 1000 nM	111 ± 31
sgRNA knockout: sgHSF1, 1 nM	99 ± 1.5
sgRNA knockout: sgHSF1, 10 nM	92.5 ± 5.7
sgRNA knockout: sgHSF1, 100 nM	94.1 ± 14
sgRNA knockout: sgHSF1, 1000 nM	97 ± 6.8
sgRNA knockout: sgHSF2, 1 nM	103 ± 10
sgRNA knockout: sgHSF2, 10 nM	90 ± 13
sgRNA knockout: sgHSF2, 100 nM	94.4 ± 9.8
sgRNA knockout: sgHSF2, 1000 nM	101 ± 1.5
sgRNA knockout: sgKEAP1, 1 nM	99.3 ± 15
sgRNA knockout: sgKEAP1, 10 nM	96.19 ± 0.33
sgRNA knockout: sgKEAP1, 100 nM	109 ± 21
sgRNA knockout: sgKEAP1, 1000 nM	96.8 ± 12
sgRNA knockout: sgNFE2L2, 1 nM	115 ± 17
sgRNA knockout: sgNFE2L2, 10 nM	88.5 ± 24
sgRNA knockout: sgNFE2L2, 100 nM	89.6 ± 25
sgRNA knockout: sgNFE2L2, 1000 nM	113 ± 1.3
sgRNA knockout: sgSLC35F2, 1 nM	90.2 ± 18
sgRNA knockout: sgSLC35F2, 10 nM	104 ± 7.9
sgRNA knockout: sgSLC35F2, 100 nM	92.36 ± 0.79
sgRNA knockout: sgSLC35F2, 1000 nM	103 ± 21
sgRNA knockout: sgXBP1, 1 nM	101 ± 4.1
sgRNA knockout: sgXBP1, 10 nM	107 ± 19
sgRNA knockout: sgXBP1, 100 nM	111 ± 18
sgRNA knockout: sgXBP1, 1000 nM	101 ± 17

CC[C@H](Nc1ncnc2[nH]cnc12)c1nc2cccc(F)c2c(=O)n1-c1ccccc1 [CAL101]
Details	relative cell number
sgRNA knockout: sgATF3, 10 nM	80.5 ± 6.3
sgRNA knockout: sgATF3, 100 nM	98.4 ± 6.5
sgRNA knockout: sgATF3, 1000 nM	104 ± 22
sgRNA knockout: sgATF3, 10000 nM	96.3 ± 15
sgRNA knockout: sgATF4, 10 nM	89.6 ± 11
sgRNA knockout: sgATF4, 100 nM	94.4 ± 17
sgRNA knockout: sgATF4, 1000 nM	108 ± 2.7
sgRNA knockout: sgATF4, 10000 nM	106 ± 20
sgRNA knockout: sgATF6, 10 nM	92.4 ± 17
sgRNA knockout: sgATF6, 100 nM	80.4 ± 5
sgRNA knockout: sgATF6, 1000 nM	100 ± 21
sgRNA knockout: sgATF6, 10000 nM	87.8 ± 13
sgRNA knockout: sgATG7, 10 nM	88.8 ± 22
sgRNA knockout: sgATG7, 100 nM	90.4 ± 2.6
sgRNA knockout: sgATG7, 1000 nM	94.9 ± 6.6
sgRNA knockout: sgATG7, 10000 nM	90.5 ± 26
sgRNA knockout: sgERN1, 10 nM	84.2 ± 7.4
sgRNA knockout: sgERN1, 100 nM	83.7 ± 4.4
sgRNA knockout: sgERN1, 1000 nM	106 ± 5.5
sgRNA knockout: sgERN1, 10000 nM	90.3 ± 19
sgRNA knockout: sgHSF1, 10 nM	88.4 ± 15
sgRNA knockout: sgHSF1, 100 nM	90.9 ± 3.6
sgRNA knockout: sgHSF1, 1000 nM	98.38 ± 0.62
sgRNA knockout: sgHSF1, 10000 nM	116 ± 29
sgRNA knockout: sgHSF2, 10 nM	96.5 ± 15
sgRNA knockout: sgHSF2, 100 nM	105 ± 2.3
sgRNA knockout: sgHSF2, 1000 nM	100 ± 3.8
sgRNA knockout: sgHSF2, 10000 nM	88 ± 5.5
sgRNA knockout: sgKEAP1, 10 nM	90 ± 12
sgRNA knockout: sgKEAP1, 100 nM	87.2 ± 2.1
sgRNA knockout: sgKEAP1, 1000 nM	94.2 ± 18
sgRNA knockout: sgKEAP1, 10000 nM	96.2 ± 20
sgRNA knockout: sgNFE2L2, 10 nM	73.9 ± 7.5
sgRNA knockout: sgNFE2L2, 100 nM	99.8 ± 5.9
sgRNA knockout: sgNFE2L2, 1000 nM	101 ± 20
sgRNA knockout: sgNFE2L2, 10000 nM	102 ± 46
sgRNA knockout: sgSLC35F2, 10 nM	99.2 ± 1.1
sgRNA knockout: sgSLC35F2, 100 nM	98.1 ± 1.2
sgRNA knockout: sgSLC35F2, 1000 nM	95.3 ± 7.4
sgRNA knockout: sgSLC35F2, 10000 nM	97.5 ± 14
sgRNA knockout: sgXBP1, 10 nM	92.3 ± 14
sgRNA knockout: sgXBP1, 100 nM	106 ± 15
sgRNA knockout: sgXBP1, 1000 nM	93.8 ± 1.5
sgRNA knockout: sgXBP1, 10000 nM	98.7 ± 11
